Assay results from PubChem BioAssay AID2685 (National Center for Advancing Translational Sciences (NCATS), 2010).
The list shows a part of the results. Shown are side measurements of this screen, not its main read-out; they come without a call. Compounds called inactive in the main read-out are mostly missing here. Words in brackets tell the shape of the fitted curve; partial curves, single points and poor fits give uncertain potencies.

Experiment: qHTS Assay for Lipid Storage Modulators in Drosophila S3 Cells;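 for cell number change: cells counted by Cell Tracker Red CMTPX staining in the red channel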
Conditions: BODIPY lipid droplet fluorescence, 18-24 h; for cell number change: measured here: cell count max response, cells fed with added oleic acid
Outline: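 Laser-scanning cytometry quantifies lipid droplet accumulation (500–530 nm total intensity; droplet/cell object ratio) in oleic acid-fed (400 uM added) Drosophila S3 cells treated with a concentration series. 20 uM Triacsin C defined 100% inhibition.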

[1] = measured here: cell number channel AC50, cells fed with added oleic acid
[2] = measured here: lipid fluorescence (Fed channel) AC50, cells fed with added oleic acid

SMILES	AC50 [1]	cell number change [%]	AC50 [2]
Cc1nn2c(-c3ccccc3)ccnc2c1-c1ccccc1	0.517 µM [rising, full curve]		
COc1ccc(CCC(C)NCc2cc(OC)cc(OC)c2)cc1 (stereo unspecified)		-8.84	
N#CCCn1cnc2c(=S)nc[nH]c21	2.06 µM [falling, partial curve, poor fit]	-11.9	1.84 µM [falling, partial curve]
O=C(COc1ccccc1)N(Cc1nnc(-c2ccccc2Cl)o1)C1CC1		-54.5	
N=c1oc2cc(O)ccc2cc1C(=O)Nc1nc2ccccc2s1		14.5	18.4 µM [rising, single point]
CCCCCCCCNC(=O)CCNC(=O)c1ccc(C(C)(C)C)cc1	0.231 µM [falling, full curve, poor fit]	-34.8	0.184 µM [falling, full curve]
COCC(=O)Nc1nc(-c2ccc(C)cc2)c(C)s1		-20.8	0.461 µM [falling, full curve, poor fit]
Cc1nc2sccn2c(=O)c1CCN1CCC(=C(c2ccccc2)c2ccc(F)cc2)CC1		-3.39	16.4 µM [rising, single point]
CC1CCCCN1C(=O)NC12CC3CC(CC(C3)C1)C2 (stereo unspecified)	18.4 µM [falling, single point]	-31.4	6.51 µM [falling, single point]
CC(NC(=O)COC(=O)CNC(=O)c1ccccc1Cl)C1CC2CCC1C2 (stereo unspecified)		11.6	29.1 µM [rising, single point]
COC(=O)C1=C(C)NC(=O)NC1c1c(O)ccc2ccccc12 (stereo unspecified)		24.3	29.1 µM [rising, single point]
COc1cccc(C(=O)Nc2cc3c(cc2C(C)=O)OCCO3)c1			2.06 µM [rising, partial curve, poor fit]
COC(=O)C(C(=O)N1CCN(C)CC1)C1CCCCCC1 (stereo unspecified)	23.1 µM [falling, partial curve, poor fit]	-111	4.11 µM [falling, full curve]
O=C(COC(=O)c1sc2ccccc2c1Cl)NC1CCCCC1	0.731 µM [rising, single point]	10.2	
COc1ccc(C(C)(C)C)cc1NC(=O)CN1C(=O)C(=O)N(Cc2ccco2)C1=O		-5.7	1.46 µM [falling, partial curve]
O=C(Nc1ccc(Cl)cc1N1CCOCC1)C1CCCCC1		15	
O=C(Nc1ccc(Cl)c(S(=O)(=O)N2CCOCC2)c1)c1cc(=O)[nH]c2ccccc12		25.5	11.6 µM [rising, partial curve]
CC(=O)NCCC(=O)Nc1cc(S(=O)(=O)Nc2ccc(Cl)cc2)ccc1N1CCCC1	29.1 µM [falling, single point]	-50	
Cn1c(=O)n(C)c2cc([N+](=O)[O-])c(N3CCN(C(=O)c4ccccc4Cl)CC3)cc21		-25.9	18.4 µM [falling, partial curve]
CCOC(=O)c1cnc(SSc2ncc(C(=O)OCC)c(N)n2)nc1N		-28.1	
O=[N+]([O-])c1ccccc1N(CC1CO1)S(=O)(=O)c1ccccc1 (stereo unspecified)		-9.78	0.00411 µM [falling, full curve, poor fit]

SMILES	AC50 [1]	cell number change [%]	AC50 [2]
CC(CN1CCOCC1)OC(=O)c1cccc(Br)c1 (stereo unspecified)		5.68	
COc1cc(C2NC(=O)NC(C)=C2C(=O)NCc2ccccc2)c(Cl)cc1O (stereo unspecified)		33.7	29.1 µM [rising, single point]
O=C(Nc1ccc(NC(=O)c2cc3ccccc3o2)cc1)c1ccco1		17.1	
O=C(NCCc1c[nH]c2ccccc12)c1cnc2sccn2c1=O	0.92 µM [rising, partial curve]	63.9	0.517 µM [rising, full curve]
COc1ccc(/C=N/NC(=O)c2ccn[nH]2)cc1Cn1nc(C)c([N+](=O)[O-])c1C		8.54	23.1 µM [rising, single point]
CCn1nc(NC(=O)C2CCCO2)c2cc3cc(C)ccc3nc21 (stereo unspecified)		-50.1	
CCN(CC(=O)Nc1ccc(OC)cc1)C(=O)c1ccc2c(=O)n3c(nc2c1)CCC3		9.08	3.26 µM [rising, single point]
Cc1ccc(S(=O)(=O)N2CCOC23CCN(C(=O)C(=O)NCCC(C)C)CC3)cc1		2.2	
O=C(CN1CCC(O)(c2ccccc2F)CC1)NCCc1c[nH]c2ccccc12	20.6 µM [rising, single point]	36.2	
O=c1[nH]c(CN(CCO)CCO)nc2c1C1(CCCCC1)Cc1ccccc1-2		-14.7	29.1 µM [falling, single point]
O=C1c2ccccc2C(=O)N1OCc1cccc(Cl)c1		-8.12	
O=C(c1cc(C2CC2)nn1-c1ccccc1)N1CCN(S(=O)(=O)c2ccccc2)CC1			13 µM [falling, partial curve]
CCCNC(=O)Cn1cnc2sc(C(=O)N3CCN(c4ccc(F)cc4)CC3)c(C)c2c1=O		-5.23	
CC(=O)Nc1ccc(S(=O)(=O)NC2=NCN(C)CN2)cc1			4.61 µM [falling, partial curve, poor fit]
COc1ccc(OCC(=O)Nc2ccc(S(=O)(=O)Nc3cc(C)on3)cc2)cc1		-16.5	
C=CCc1cccc(/C=N/NC(=O)C(C)Nc2cccc(C)c2)c1O (stereo unspecified)		10.3	
Cc1nc2ccccc2c(=O)n1NC(=O)Nc1ccccc1	2.59 µM [rising, partial curve]		
Cc1ccc(CNC(=O)CCc2c(C)nn(-c3ccc(N4CCOCC4)nn3)c2C)cc1	29.1 µM [falling, single point]	-43.2	
COc1ccc(CNC(=O)CCc2nc(-c3ccccc3F)no2)c(OC)c1	6.51 µM [rising, single point]		4.11 µM [rising, single point]
O=C(CN1CCOCC1)NC1C2CC3CC(C2)CC1C3 (stereo unspecified)		-21.5	0.731 µM [falling, full curve]
COc1ccccc1N/N=C(\C#N)C(=N)N1CCOCC1		25.8	6.51 µM [rising, full curve, poor fit]

SMILES	AC50 [1]	cell number change [%]	AC50 [2]
CC(C)(C)C1CCC(=O)N(CCOc2ccccc2)CC1 (stereo unspecified)		-23.6	
COc1cccc(C=Nc2cc(C)cc(C)c2)c1O	0.00651 µM [falling, full curve]	-25.5	0.00651 µM [falling, full curve, poor fit]
COc1ccc(NC(=O)NCCN2CCN(c3cc(OC)ccc3OC)CC2)cc1		-16.1	16.4 µM [falling, single point]
COc1ccc(CN(C)C(=O)c2ccc(NC(=O)CC3SC(N4CCCC4)=NC3=O)cc2)c(OC)c1OC (stereo unspecified)		-9.68	6.51 µM [falling, single point]
CCCc1nc2ccccc2c(=O)n1-c1c(C)n(C)n(-c2ccccc2)c1=O		-7.57	3.26 µM [falling, single point]
COc1ccc2cc3c(N)nn(C(=O)c4cccc(F)c4)c3nc2c1	29.1 µM [falling, single point]	-45.5	29.1 µM [falling, single point]
COc1ccc(CN(C(=O)c2ccc(C)cc2)C2CCS(=O)(=O)C2)cc1 (stereo unspecified)		22.4	13 µM [rising, partial curve]
Nn1c(SCc2nc3ccccc3[nH]2)nnc1C1CCCCC1		-18.1	
O=C(O)c1ccc(Cl)c(S(=O)(=O)NCc2cccnc2)c1	4.11 µM [falling, partial curve]	-35	
COc1ccc2[nH]c3c(c2c1)CCn1c-3nc2ccccc2c1=O		14.5	0.651 µM [rising, full curve]
COc1cc(C(=O)OCC(=O)Nc2ccc(SC(F)F)cc2)cc(OC)c1OC		-19.5	6.51 µM [falling, full curve, poor fit]
COc1ccc2c(c1)[n+](=O)c(C(C)=O)c(C)n2[O-]		-3.57	0.651 µM [rising, single point]
COc1cc(NC(=O)c2noc(C)c2[N+](=O)[O-])c(OC)cc1Cl		-0.38	0.411 µM [rising, partial curve, poor fit]
CCOC(=O)c1ccc(NC(=O)c2nc[nH]c2C(=O)NCCCCNC(=O)c2[nH]cnc2C(=O)Nc2ccc(C(=O)OCC)cc2)cc1		20.4	0.731 µM [falling, single point]
Cc1ccc2nc(NC3=NC(CC(=O)O)C(=O)N3)nc(C)c2c1 (stereo unspecified)	20.6 µM [rising, single point]	59.2	
COc1ccc(/C=C2\COc3ccccc3C2=O)c(OC)c1	13 µM [falling, single point]	-39	29.1 µM [falling, partial curve, poor fit]
CCN(CC)S(=O)(=O)c1ccc(Oc2ccccc2)cc1			0.116 µM [falling, full curve, poor fit]
CCc1ccc2c(c1)C(c1ccc([N+](=O)[O-])cc1)=NNC(c1ccc(F)cc1)=N2	6.51 µM [falling, full curve]	-51.8	23.1 µM [falling, single point]
O=C(O)c1cccc(C(=O)O)n1		-3.45	1.3 µM [falling, full curve]
COc1ccc(C(=O)Nc2nc(-c3cccs3)cs2)cc1		-18.9	23.1 µM [rising, single point]
CCCCN(C(=O)c1cc(CC)c(C)s1)c1c(N)n(CCC)c(=O)[nH]c1=O	29.1 µM [rising, single point]	50	0.103 µM [rising, full curve, poor fit]

Look-ups from above.
Value for O=C(O)c1cccc(C(=O)O)n1 under AC50 [2]: 1.3 µM [falling, full curve]
Value for CCOC(=O)c1ccc(NC(=O)c2nc[nH]c2C(=O)NCCCCNC(=O)c2[nH]cnc2C(=O)Nc2ccc(C(=O)OCC)cc2)cc1 under AC50 [2]: 0.731 µM [falling, single point]
Value for CCN(CC)S(=O)(=O)c1ccc(Oc2ccccc2)cc1 under AC50 [2]: 0.116 µM [falling, full curve, poor fit]
